Data reported in paper PMC5829251, “NAD^+ analog reveals PARP-1 substrate-blocking mechanism and allosteric communication from catalytic center to DNA-binding domains” (Nature Communications, 2018).

Chains of the proteins cited; added tags and fusions are not shown.
UniProt P09874, whole entry: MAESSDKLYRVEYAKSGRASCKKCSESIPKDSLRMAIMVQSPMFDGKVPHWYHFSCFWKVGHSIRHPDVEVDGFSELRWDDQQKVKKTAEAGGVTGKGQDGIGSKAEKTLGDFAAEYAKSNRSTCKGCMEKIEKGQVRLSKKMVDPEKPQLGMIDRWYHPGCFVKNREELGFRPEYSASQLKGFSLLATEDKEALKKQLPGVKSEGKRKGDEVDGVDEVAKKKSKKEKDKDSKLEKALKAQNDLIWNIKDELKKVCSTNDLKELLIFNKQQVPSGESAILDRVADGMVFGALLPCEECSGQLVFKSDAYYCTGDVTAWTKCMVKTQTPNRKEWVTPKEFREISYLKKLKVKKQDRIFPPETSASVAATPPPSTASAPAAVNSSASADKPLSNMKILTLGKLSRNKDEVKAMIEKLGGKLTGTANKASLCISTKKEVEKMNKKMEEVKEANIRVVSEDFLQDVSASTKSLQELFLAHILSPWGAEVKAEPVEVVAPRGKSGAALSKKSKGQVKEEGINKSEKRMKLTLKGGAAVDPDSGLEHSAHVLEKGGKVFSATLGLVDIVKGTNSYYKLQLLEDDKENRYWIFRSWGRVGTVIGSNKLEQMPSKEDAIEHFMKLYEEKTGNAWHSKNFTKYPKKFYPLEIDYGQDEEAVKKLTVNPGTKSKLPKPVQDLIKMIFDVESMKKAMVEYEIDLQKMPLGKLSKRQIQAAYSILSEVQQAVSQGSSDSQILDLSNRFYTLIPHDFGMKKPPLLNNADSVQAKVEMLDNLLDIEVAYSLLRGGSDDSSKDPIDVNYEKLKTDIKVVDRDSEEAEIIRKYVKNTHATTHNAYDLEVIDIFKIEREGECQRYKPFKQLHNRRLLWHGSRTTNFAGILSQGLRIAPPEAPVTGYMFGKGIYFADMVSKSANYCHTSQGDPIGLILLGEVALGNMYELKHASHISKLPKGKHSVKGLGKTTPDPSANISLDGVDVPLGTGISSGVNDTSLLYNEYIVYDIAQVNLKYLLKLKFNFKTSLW

Target: PARP-1 WT (human) (UniProt P09874)
Test: NMR
Details: 20 uM BAD, BAD signal lost only with PARP-1 plus DNA (indirect read-out); recombinant protein; residues 1-1014; folded or branched DNA

“GCTGGCTTCGTAAGAAGCCAGCTCGCGGTCAGCTTGCTGACCGCG [dumbbell DNA with central 1-nt gap]”: binds.

The exact form of at least one protein or probe is not confirmed. At least one verdict was read from the data and is not stated in words by the source.
